From the supplement of paper PMC12067093, “Discovery and optimisation of a covalent ligand for TRIM25 and its application to targeted protein ubiquitination” (Chemical Science, 2025)
The list shows a part of the results.

Compound: Cc1cc(ccc1-c1ccccc1)C(=O)N1CCCN(CC1)C(=O)CCl [compound 10]
Experiment: probe-labelled cysteine peptide fold change vs DMSO (competition) (log2 fold change); higher = less target engagement (more negative = stronger competition)
Settings: THP-1, incubation time: 4 h
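Note: competitive profiling in live THP-1 cells: cysteine peptides tagged with an iodoacetamide desthiobiotin (IA-DTB) probe, intensity after compound treatment relative to DMSO-treated cells.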

Target | probe-labelled cysteine peptide fold change (10 µM) | probe-labelled cysteine peptide fold change (50 µM)
PTPN1_P18031_344_EETQEDKDCPIK (UniProt P18031) | -0.41 | -0.973
PTBP3_O95758_500_NLFIEAGCSVK (UniProt O95758) | 0.0792 | 0.0833
PSMC2_P35998_236_TDACFIR (UniProt P35998) | -0.0522 | -0.111
PTPRC_P08575_434_DCLNLDK (UniProt P08575) | -0.329 | -0.108
PTPRF_P10586_1891_TQRPAMVQTEDQYQLCYR (UniProt P10586) | -0.0256 | -0.148
PSMC6_P62333_228_DHQPCIIFMDEIDAIGGR (UniProt P62333) | -0.0612 | 0.106
PTPRC_P08575_1261_VKQDANCVNPLGAPEK (UniProt P08575) | -0.224 | -0.555
PTGFRN_Q9P2B2_429_VPGFADDPTELACR (UniProt Q9P2B2) | -0.0378 | 0.145
PSMG2_Q969U7_168+178_CIPEIDDSEFCIR (UniProt Q969U7) | 0.0824 | 0.133
PSMC3_P17980_387+396_CTDDFNGAQCK (UniProt P17980) | -0.125 | 0.00299
PUM3_Q15397_185_VIQCYIQYGNEEQR (UniProt Q15397) | -0.00437 | 0.315
PSTPIP1_O43586_148_CRDADDAEQAFER (UniProt O43586) | 0.288 | 0.343
PTER_Q96BW5_38+43_TLTHEHLAMTFDCCYCPPPPCQEAISK (UniProt Q96BW5) | -0.244 | -0.944
PSPH_P78330_38_ICGVEDAVSEMTR (UniProt P78330) | 0.25 | 0.0933
PTK2B_Q14289_298_QLTSQDAKPTCLAEFK (UniProt Q14289) | -0.2 | -0.298
PTDSS1_P48651_153_EADVMEYAVNCHVITWER (UniProt P48651) | 0.383 | 0.359
PSMB2_P49721_91_NLADCLR (UniProt P49721) | -0.12 | -0.218
PTPRE_P23469_244_CHQYWPDQGCWTYGNIR (UniProt P23469) | -0.00327 | 0.402
PTPRJ_Q12913_1149_CEEYWPSK (UniProt Q12913) | -0.108 | 0.15

Record cards (already shown):
PTBP3_O95758_500_NLFIEAGCSVK (UniProt O95758) reads probe-labelled cysteine peptide fold change (10 µM): 0.0792; probe-labelled cysteine peptide fold change (50 µM): 0.0833
PSTPIP1_O43586_148_CRDADDAEQAFER (UniProt O43586) reads probe-labelled cysteine peptide fold change (10 µM): 0.288; probe-labelled cysteine peptide fold change (50 µM): 0.343
PUM3_Q15397_185_VIQCYIQYGNEEQR (UniProt Q15397) reads probe-labelled cysteine peptide fold change (10 µM): -0.00437; probe-labelled cysteine peptide fold change (50 µM): 0.315

Next part.

Target | probe-labelled cysteine peptide fold change (10 µM) | probe-labelled cysteine peptide fold change (50 µM)
PTER_Q96BW5_38_TLTHEHLAMTFDCCYCPPPPCQEAISK (UniProt Q96BW5) | -0.121 | -0.663
PTPRC_P08575_1261_QDANCVNPLGAPEK (UniProt P08575) | -0.14 | 0.111
PTGFRN_Q9P2B2_169_CTAASASPLHTHLALLWEVHR (UniProt Q9P2B2) | 0.115 | -0.0303
PUM1_Q14671_234_SESGGLGVSMVEYVLSSSPGDSCLRK (UniProt Q14671) | -0.247 | -0.399
PTCD3_Q96EY7_551_DKHPPELQVAFADCAADIK (UniProt Q96EY7) | -0.203 | -0.185
PTPN23_Q9H3S7_116_SVAHEDIKYEQACILYNLGALHSMLGAMDKR (UniProt Q9H3S7) | 0.144 | -0.327
PTPRF_P10586_1582_TVDIYGHVTCMR (UniProt P10586) | -0.0291 | 0.131
PSMD7_P51665_116_RYCPNSVLVIIDVKPK (UniProt P51665) | -0.082 | 0.475
PSMD12_O00232_108+109_MVQQCCTYVEEITDLPIK (UniProt O00232) | -0.122 | 0.031
PSMC4_P43686_210_QIGIDPPRGVLMYGPPGCGK (UniProt P43686) | -0.144 | -0.356
PSPC1_Q8WXF1_216_CGDGAFLLTTTPR (UniProt Q8WXF1) | -0.00684 | 0.226
PSMC2_P35998_389_SVCTEAGMFAIR (UniProt P35998) | -0.00623 | 0.116
PSMA6_P60900_161_CDPAGYYCGFK (UniProt P60900) | 0.189 | -0.00591
PTPN23_Q9H3S7_65_DFEGCSVLR (UniProt Q9H3S7) | -0.197 | -0.201
PTER_Q96BW5_36_TLTHEHLAMTFDCCYCPPPPCQEAISK (UniProt Q96BW5) | -0.00632 | -0.855
PTBP3_O95758_68_KIPCDVTEAEIISLGLPFGK (UniProt O95758) | -0.118 | -0.541
PTRH1_Q86Y79_72_HCAADLALAPLGDAQLVLLRPR (UniProt Q86Y79) | -0.171 | 0.46
PUF60_Q9UHX1_487_DIDDDLEGEVTEECGK (UniProt Q9UHX1) | -0.0568 | 0.0309
PSMC2_P35998_377_LCPNSTGAEIR (UniProt P35998) | 0.0275 | 0.0409
